From PubChem BioAssay AID330 (DTP/NCI, 2004)
The list does not hold the whole screen: it is rich in T/C values a quarter to a half above the control, in often repeated tests (any T/C) and in doses without a T/C. Further doses and runs are listed elsewhere. T/C gives the treated animals as a percentage of the vehicle group. Some doses have a count of surviving animals in place of a T/C: the source files T/C as zero there, which appears to mark a toxic dose or a test without result, not a measured value. Some survivor counts are full or nearly so, which does not show that the dose was tolerated: the source hardly ever lists a survival T/C far under the control, and the zero likely stands for such cases as well. Counts of survivors are from the toxicity check (mostly the fifth day) where no day follows; animals may have died later. Schedules are NCI's codes, read here as Q, the interval in days (D) or hours (H), X, the number of doses. Some entries hold several experiments; the results are listed from low to high. Where survival is the endpoint, this PubChem deposit counts one and a half times the control or more as active, and values a quarter to a half above the control carry no call in these data; other NCI protocols may use other cut-offs. Some T/C values carry the count of animals alive at the toxicity check (mostly the fifth day); where none is given, no animal had died by that day.

System: P388 leukemia ip, CD2F1 mice, survival T/C
Experiment: NCI In Vivo Anticancer Drug Screen. Data for tumor model P388 Leukemia (intraperitoneal) in CD2F1 (CDF1) mice
Settings: T/C endpoint: median survival time, higher T/C = longer survival
[1] = dose: 25.0 mg/kg/injection, schedule: Q01DX009 (ip), vehicle: other
[2] = dose: 100.0 mg/kg/injection, schedule: Q01DX009 (ip), vehicle: other
[3] = dose: 200.0 mg/kg/injection, schedule: Q01DX009 (ip), vehicle: saline
[4] = dose: 200.0 mg/kg/injection, schedule: Q01DX005 (ip), vehicle: Klucel (hydroxypropylcellulose) (HPC)
[5] = dose: 120.0 mg/kg/injection, schedule: Q01DX005 (ip), vehicle: saline with Tween-80
[6] = dose: 240.0 mg/kg/injection, schedule: Q01DX005 (ip), vehicle: saline with Tween-80
[7] = dose: 10.0 mg/kg/injection, schedule: Q01DX009 (ip), vehicle: saline + alcohol

For `Cc1cc(NCCCNCCCNc2cc(C)nc3cc([N+](=O)[O-])ccc23)c2ccc([N+](=O)[O-])cc2n1`, the T/C (dose: 3.13 mg/kg/injection, schedule: Q01DX009 (ip), vehicle: other) was 133 % of control, the T/C (dose: 6.25 mg/kg/injection, schedule: Q01DX009 (ip), vehicle: other) was 133 and 134 % of control and the T/C (dose: 12.5 mg/kg/injection, schedule: Q01DX009 (ip), vehicle: other) was 135 % of control. The survivor count [1] was 2 of 6, the survivor count (dose: 50.0 mg/kg/injection, schedule: Q01DX009 (ip), vehicle: other) was 0 of 6 and 1 of 6 and the survivor count [2] was 0 of 6. For the same molecule, the survivor count (dose: 200.0 mg/kg/injection, schedule: Q01DX009 (ip), vehicle: other) was 0 of 6.
In the case of `CC(=O)OCC(=O)[C@@]1(O)CC[C@H]2[C@@H]3CCC4=CC(=O)[C@H](C)C[C@]4(C)[C@@]3(F)[C@@H](O)C[C@@]21C`, the survivor count (dose: 400.0 mg/kg/injection, schedule: Q04DX003 (ip), vehicle: Klucel (hydroxypropylcellulose) (HPC)) is reported as 6 of 6.
`COc1ccc(C(=O)c2ncccc2C)cc1OC` was tested, and the survivor count [1] was 6 of 6 and the survivor count (dose: 400.0 mg/kg/injection, schedule: Q01DX009 (ip), vehicle: other) was 3 of 6.
For `O=C(Nc1ccc(NC(=O)c2ccc(C3=NCCCN3)cc2)cc1)Nc1ccc(C2=NCCCN2)cc1`, the T/C (dose: 6.6 mg/kg/injection, schedule: Q01DX009 (ip), vehicle: saline with Tween-80) was 140 % of control, the T/C (dose: 15.0 mg/kg/injection, schedule: Q01DX009 (ip), vehicle: saline with Tween-80) was 136 % of control [5 of 6 alive] and the survivor count (dose: 40.0 mg/kg/injection, schedule: Q01DX009 (ip), vehicle: saline) was 3 of 6. For the same molecule, the survivor count (dose: 100.0 mg/kg/injection, schedule: Q04DX003 (ip), vehicle: saline) was 0 of 6, the survivor count (dose: 200.0 mg/kg/injection, schedule: Q04DX003 (ip), vehicle: saline) was 0 of 6 and the survivor count (dose: 400.0 mg/kg/injection, schedule: Q04DX003 (ip), vehicle: saline) was 0 of 6.
With `COC(=O)COc1cc2c(cc1C(C)c1ccc(OCc3ccccc3)cc1)OCO2` (stereo not drawn) the survivor count (dose: 25.0 mg/kg/injection, schedule: Q01DX005 (ip), vehicle: distilled water + Tween-80) was 6 of 6, the survivor count (dose: 50.0 mg/kg/injection, schedule: Q01DX005 (ip), vehicle: distilled water + Tween-80) was 6 of 6 and the survivor count (dose: 100.0 mg/kg/injection, schedule: Q01DX005 (ip), vehicle: distilled water + Tween-80) was 6 of 6.
`CS(=O)(=O)CS(=O)CS(=O)CS(=O)CC(NC(=O)CCC(N)C(=O)O)C(=O)O` (stereo not drawn) was tested, and the survivor count (dose: 200.0 mg/kg/injection, schedule: Q01DX005 (ip), vehicle: suspension in saline) was 3 of 5.
In the case of `O=S(=O)(CC(O)C(Cl)(Cl)Cl)NNc1ccccc1` (stereo not drawn), the survivor count [3] is reported as 0 of 6.
With `CCC(C)P(=O)(N1CC1C)N1CC1C` (stereo not drawn) the survivor count (dose: 12.5 mg/kg/injection, schedule: Q01DX009 (ip), vehicle: saline) was 6 of 6, the survivor count (dose: 25.0 mg/kg/injection, schedule: Q01DX009 (ip), vehicle: saline) was 0 of 6 and the survivor count (dose: 50.0 mg/kg/injection, schedule: Q01DX009 (ip), vehicle: saline) was 0 of 6.
In the case of `Nn1c(N/N=C\c2ccccc2)nnc1N/N=C/c1ccccc1`, the survivor count (dose: 200.0 mg/kg/injection, schedule: Q01DX001 (ip), vehicle: Klucel (hydroxypropylcellulose) (HPC)) is reported as 2 of 6.
With `CCCN(CCC)C1=CC(=O)C(N(CCC)CCC)=CC1=O` the survivor count [4] was 0 of 5.
In the case of `CCCCOP(=O)(O)OCCCC.[Th]`, the survivor count (dose: 100.0 mg/kg/injection, schedule: Q01DX001 (ip), vehicle: saline with Tween-80) is reported as 6 of 6 and the survivor count (dose: 200.0 mg/kg/injection, schedule: Q01DX001 (ip), vehicle: saline with Tween-80) is reported as 6 of 6.
With `CN1N=Nc2ccccc2C1O` (stereo not drawn) the survivor count [4] was 0 of 6.
In the case of `C[Si](CNCCN)(c1ccccc1)c1ccccc1`, the survivor count [5] is reported as 0 of 6 and the survivor count [6] is reported as 0 of 6.
`C/C(=N\N=c1/cc(Cl)n(C)c(=O)n1C)c1ccc(Cl)cc1` was tested, and the survivor count (dose: 200.0 mg/kg/injection, schedule: Q01DX009 (ip), vehicle: Klucel (hydroxypropylcellulose) (HPC)) was 6 of 6.
With `COC1CC(C)C(OC)c2cc(O)cc(c2O)NC(=O)/C(C)=C/C=C\C(C)C(OC(N)=O)/C(C)=C\C(C)C1OC` (stereo not drawn) the T/C (dose: 1.25 mg/kg/injection, schedule: Q01DX009 (ip), vehicle: saline + alcohol) was 128 % of control, the T/C (dose: 2.5 mg/kg/injection, schedule: Q01DX009 (ip), vehicle: saline + Tween-80 + alcohol) was 126 % of control and the T/C (dose: 2.5 mg/kg/injection, schedule: Q01DX009 (ip), vehicle: saline + alcohol) was 142 % of control. For the same molecule, the T/C (dose: 5.0 mg/kg/injection, schedule: Q01DX009 (ip), vehicle: saline + Tween-80 + alcohol) was 141 % of control, the T/C (dose: 5.0 mg/kg/injection, schedule: Q01DX009 (ip), vehicle: saline + alcohol) was 134, 135, 137 % of control and the survivor count (dose: 10.0 mg/kg/injection, schedule: Q01DX009 (ip), vehicle: saline + Tween-80 + alcohol) was 6 of 6. For the same molecule, the T/C [7] was 144 and 145 % of control, the survivor count [7] was 4 of 6 and the survivor count (dose: 10.0 mg/kg/injection, schedule: Q01DX009 (sc), vehicle: saline + Tween-80 + alcohol) was 5 of 6. The survivor count (dose: 20.0 mg/kg/injection, schedule: Q01DX009 (ip), vehicle: saline + Tween-80 + alcohol) was 1 of 6, the survivor count (dose: 20.0 mg/kg/injection, schedule: Q01DX009 (ip), vehicle: saline + alcohol) was 0 of 6 and the survivor count (dose: 20.0 mg/kg/injection, schedule: Q01DX009 (sc), vehicle: saline + Tween-80 + alcohol) was 0 of 6. The survivor count (dose: 30.0 mg/kg/injection, schedule: Q01DX009 (ip), vehicle: saline + Tween-80 + alcohol) was 0 of 6, the survivor count (dose: 40.0 mg/kg/injection, schedule: Q01DX009 (ip), vehicle: saline + alcohol) was 0 of 6 and the survivor count (dose: 40.0 mg/kg/injection, schedule: Q01DX009 (sc), vehicle: saline + Tween-80 + alcohol) was 1 of 6. The survivor count (dose: 60.0 mg/kg/injection, schedule: Q01DX009 (sc), vehicle: saline + Tween-80 + alcohol) was 1 of 6.
`CCCCNc1ccc(-c2c(N)nc(N)nc2CC)cc1[N+](=O)[O-]` was tested, and the T/C [5] was 146 % of control and the T/C [6] was 126 % of control.
`Cc1cccc(NC(=O)N(CCCl)N=O)c1` was tested, and the T/C (dose: 0.75 mg/kg/injection, schedule: Q01DX009 (ip), vehicle: saline) was 148 % of control, the survivor count (dose: 12.5 mg/kg/injection, schedule: Q01DX009 (ip), vehicle: saline with Tween-80) was 6 of 6 and the survivor count (dose: 18.75 mg/kg/injection, schedule: Q04DX003 (ip), vehicle: saline with Tween-80) was 6 of 6. For the same molecule, the survivor count (dose: 25.0 mg/kg/injection, schedule: Q04DX003 (ip), vehicle: saline with Tween-80) was 6 of 6.
With `CC1CN1C(=O)Nc1cccc(Cl)c1` (stereo not drawn) the survivor count [3] was 5 of 6.
With `Cn1cnc([N+](=O)[O-])c1[Se]c1nc(N)nc2nc[nH]c12` the T/C (dose: 12.5 mg/kg/injection, schedule: Q01DX009 (ip), vehicle: dextrose) was 131 % of control and the T/C (dose: 12.5 mg/kg/injection, schedule: Q01DX009 (ip), vehicle: water) was 126 % of control.
For `C1=C(C2CCCC3[C@@H]4C[C@@H](CN23)C2CCCCN2C4)CCC2[C@H]3C[C@H](CN12)C1CCCCN1C3` (stereo partly drawn), the survivor count (dose: 60.0 mg/kg/injection, schedule: Q01DX005 (ip), vehicle: Klucel (hydroxypropylcellulose) (HPC)) was 0 of 6 and 1 of 6, the survivor count (dose: 120.0 mg/kg/injection, schedule: Q01DX005 (ip), vehicle: Klucel (hydroxypropylcellulose) (HPC)) was 0 of 6 and the survivor count (dose: 240.0 mg/kg/injection, schedule: Q01DX005 (ip), vehicle: Klucel (hydroxypropylcellulose) (HPC)) was 0 of 6.
In the case of `COC(=O)C(CSC(c1ccccc1)(c1ccccc1)c1ccccc1)NC(=O)CCNC(=O)OCc1ccccc1` (stereo not drawn), the survivor count [2] is reported as 6 of 6.
For `NC(CS/C(Cl)=C/Cl)C(=O)O` (stereo not drawn), the T/C (dose: 18.0 mg/kg/injection, schedule: Q01DX009 (ip), vehicle: saline with Tween-80) was 129 % of control and the survivor count (dose: 40.0 mg/kg/injection, schedule: Q01DX009 (ip), vehicle: saline with Tween-80) was 4 of 6.
